The other results are listed elsewhere or left out.
Experiment: GFP-LC3 puncta formation changes – imaging, high-content, MEF GFP-LC3, primary screen (AID 463193);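 also: cell loss after 18 h compound exposure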
Conditions: autophagy, measured here: cell loss, nuclei count, at 10 µM

| Compound | toxicity |
| --- | --- |
| Cc1cccc(C)c1OP(C)(=O)Nc1ccc(SC(F)(F)F)cc1 (stereo unspecified) | -16.8% |
| CP(=O)(Oc1ccccc1)OC(c1ccccc1)C(F)(F)F (stereo unspecified) | 2.44% |
| O=C(COc1ccccc1)OC1CN2CCC1CC2 (stereo unspecified) | 3.64% |
| CP(=O)(NC(=O)Nc1ccccc1)Oc1ccccc1 (stereo unspecified) | -10.4% |
| Cc1cc(C)cc(OP(C)(=O)Nc2ccc(SC(F)(F)F)cc2)c1 (stereo unspecified) | 17% |
| CP(=S)(Nn1cnnc1)Oc1ccccc1 (stereo unspecified) | -9.37% |
| CP(=O)(Nc1ccccc1Br)Oc1ccccc1 (stereo unspecified) | -41.7% |
| O=P(Nc1ccccn1)(c1cccc2ccccc12)c1cccc2ccccc12 | -2.54% |
| Cc1cc(SC(NC=O)C(Cl)(Cl)Cl)ncn1 (stereo unspecified) | 13.5% |
| COc1ccccc1OP(C)(=O)Nc1ccccc1 (stereo unspecified) | 8.8% |
| Cc1cc(SC(NC(=O)c2ccccc2)C(Cl)(Cl)Cl)nc(C(C)C)n1 (stereo unspecified) | 11.9% |
| COc1ccccc1OP(C)(=O)Nc1ccc(C)cc1 (stereo unspecified) | 11.8% |
| Cc1ccc(NP(C)(=O)Oc2ccccc2)c(C)c1 (stereo unspecified) | 2.2% |
| CCOC(=O)c1ccc(NP(C)(=O)Oc2ccccc2)cc1 (stereo unspecified) | 17% |
| ClCCSc1nnc(-c2cccnc2)o1 | 8.9% |
| Cc1cc(C)cc(OP(C)(N)=O)c1 (stereo unspecified) | -2.65% |

| Compound | toxicity |
| --- | --- |
| COc1ccccc1OP(C)(=O)Nc1cc(Cl)ccc1C (stereo unspecified) | 0.125% |
| CC(C)NC(=O)NP(=O)(Oc1ccccc1)Oc1ccccc1 | 4.43% |
| CCN(CC)C(=S)SC(NC=O)C(Cl)(Cl)Cl (stereo unspecified) | 20.9% |
| COc1ccc(OP(C)(=O)Nc2cccc(F)c2)cc1 (stereo unspecified) | -10.9% |
| O=[N+]([O-])c1cc([N+](=O)[O-])c(-c2ccn[nH]2)s1 | -14.2% |
| O=[N+]([O-])c1ccc2c(c1)C=Nc1ccccc1O2 | 60.2% |
| Cc1ccc2nc3c(c(C)c2c1)CC(C(Cl)Cl)S3 (stereo unspecified) | -6.45% |
| CC(C)(C)c1ccc(OP(C)(=O)Nc2ccc(SC(F)(F)F)cc2)cc1 (stereo unspecified) | 5.48% |
| Cc1cccc(C)c1OP(C)(N)=O (stereo unspecified) | -4.99% |
| COc1ccc(N/C(=N/P(=O)(N2CCOCC2)N2CCOCC2)N2CCOCC2)cc1 | -8.28% |
| O=C(OC1CN2CCC1CC2)C12CC3CC(CC(C3)C1)C2 (stereo unspecified) | 12.2% |
| CCN(CC)CCCOC(=O)C(O)(c1ccccc1)c1ccccc1 | 23.6% |
| Cc1cc(=O)[nH]c(N[N+](=O)[O-])n1 | -8.33% |
| Cc1c2c(nc3ccccc13)SC(C(Cl)Cl)C2 (stereo unspecified) | -6.98% |
| COc1ccc2nc(NP(=O)(c3ccccc3)c3ccccc3)sc2c1 | -6.41% |
